Results published in PubChem BioAssay AID588499 (NMMLSC, 2011).
The campaign covered roughly 360,000 compounds. About 610 (0.17%) were called active. Inconclusive results, whose numbers are uncertain, are shown with a selection of clear calls. No stated cut-off is given here; in the data, active means inhibition above about 30%; inconclusive means no clear call, values can overlap the other calls; inactive means below that.

tested on: Botulinum neurotoxin type A light chain protease (Clostridium botulinum A str. ATCC 3502); experiment: blockers of BoNT/A LC substrate cleavage – biochemical, flow cytometry, MLPCN library, primary screen (AID 588499); conditions: multiplex microsphere protease substrate cleavage, at 10 µM, hits give high values; further: plate controls were buffer without enzyme for full effect and enzyme alone for no effect

| SMILES | inhibition |
| --- | --- |
| O=C(Nc1sccc1C(=O)NCc1ccco1)c1cccnc1 | inconclusive: -1.3% |
| CC(=NCc1ccc(F)cc1)c1c(O)n(C)c(=O)n(C)c1=O | inconclusive: 0.8% |
| O=C(Cc1ccc(Cl)cc1)Nc1ccc(CN2CCCCC2)cc1 | inconclusive: -37% |
| N#Cc1ccccc1Cn1c(-c2cscn2)nc2ccccc21 | inconclusive: -1% |
| Cc1cc2cc(CNC(=O)Cc3cccs3)ccc2n1C | active: 74.8% |
| CC(=O)Nc1ccc(S(=O)(=O)N2CCOCC2)cc1 | inactive: 2.2% |
| Cc1cc(=O)oc(C)c1C(=O)Nc1ccc(N(C)C)cc1 | inconclusive: 4.3% |
| COC(=O)c1cc(C(=O)OC)n(Cc2ccc(C)cc2)c1C | inactive: -0.4% |
| Cc1nc(SCCO)c([N+](=O)[O-])[nH]1 | inconclusive: 7.6% |
| COC(=O)[C@@H](NC(=O)NCCC1=CCCCC1)C(C)C | inconclusive: -10% |
| CC(NC(=O)CCNC(=O)c1ccc(C(C)(C)C)cc1)c1ccccc1 (stereo not drawn) | inactive: -0.2% |
| COc1ccc(-c2nnn(CC(=O)N(CC(=O)NCCC(C)C)Cc3cccs3)n2)cc1OC | inconclusive: -2.9% |
| COC(=O)Cn1c(=NC(=O)c2cc(-c3cccs3)nc3ccccc23)sc2cc(S(N)(=O)=O)ccc21 | active: 37.5% |
| Cn1nc(C(=O)NC2CCCCC2)c2ccccc2c1=O | inconclusive: 1.9% |
| CN(C)c1ccc(-c2nn3c(-c4ccccc4Cl)nnc3s2)cc1 | inconclusive: 4.3% |
| C1=C(CCNCc2ccccc2)CCCC1 | inconclusive: 2.9% |
| CCn1c(CNC(=O)c2cccs2)nnc1SCC(=O)Nc1cc(Cl)ccc1C | inconclusive: 9.6% |
| O=C(N/N=C/c1ccccc1[N+](=O)[O-])c1cnccn1 | inconclusive: 4.5% |
| COc1ccccc1N1CCN(C(=O)c2cc(-c3ccc(Cl)c(Cl)c3)on2)CC1 | inconclusive: -1.1% |
| COc1ccc(/C=N/NC(=O)c2cc(C)oc2C)cc1OC | inconclusive: -27.7% |
| CCOC(=O)c1[nH]c(C)c(C(=O)Nc2ccc(C)c(F)c2)c1C | inactive: 0% |
| O=C1CN(C(=O)COC(=O)C2CCN(S(=O)(=O)c3ccccc3C(F)(F)F)CC2)c2ccccc2N1 | inconclusive: -2.1% |
| COc1ccc(N/C=C\C(=O)c2ccc3ccccc3c2)cc1 | inconclusive: -4.8% |
| Cc1oc(S(=O)(=O)N2CCOCC2)cc1C(=O)Nc1ccc(Cl)cc1 | inconclusive: -42.9% |

Sorted by count of non-hydrogen atoms (low to high): 3 of the compounds above

| SMILES | inhibition |
| --- | --- |
| COC(=O)[C@@H](NC(=O)NCCC1=CCCCC1)C(C)C | inconclusive: -10% |
| COc1ccc(/C=N/NC(=O)c2cc(C)oc2C)cc1OC | inconclusive: -27.7% |
| CC(NC(=O)CCNC(=O)c1ccc(C(C)(C)C)cc1)c1ccccc1 (stereo not drawn) | inactive: -0.2% |

Additional compounds.

| SMILES | inhibition |
| --- | --- |
| O=C(c1ccc(F)cc1)N1CCCC(C(=O)N2CCN(c3ccccc3)CC2)C1 (stereo not drawn) | inconclusive: -3.5% |
| CCN(CC)S(=O)(=O)c1cc(NC(=O)COC(=O)CCc2nc3ccccc3s2)ccc1C | inconclusive: 0.4% |
| CCOc1ccc(-c2nc(C#N)c(N3CCN(CC)CC3)o2)cc1 | inconclusive: 1.6% |
| Cc1nc(-c2nc(-c3c(C(=O)NNC(=O)Nc4ccccc4)noc3C)cs2)cs1 | inconclusive: -12.7% |
| CCN(Cc1ccc(OC)c(COC)c1)CC1CCCN(CCc2cccc(F)c2)C1 (stereo not drawn) | inconclusive: -5.5% |
| Cc1ccc2cc(C(c3nnnn3Cc3ccccc3)N3CCc4ccccc43)c(=O)[nH]c2c1 (stereo not drawn) | inactive: 0.6% |
| CN(c1cccc(NC(=O)Nc2ccc(Cl)cc2)c1)S(C)(=O)=O | inconclusive: -2.3% |
| CCc1ccc2[nH]c(=O)c(C(c3nnnn3Cc3ccccc3)N3CCOCC3)cc2c1 (stereo not drawn) | inconclusive: 2.2% |
| O=c1[nH]c2c(cnn2-c2ccc(Cl)cc2)c(=O)n1-c1cccc(Cl)c1 | inconclusive: 20.3% |
| Cc1ccc(Sc2ccc(NC(=O)c3ccc(S(C)(=O)=O)cc3Cl)cc2)cc1 | inconclusive: 1.5% |
| CN(C)CC(=O)c1ccc(-c2ccccc2)cc1 | inactive: 1.2% |
| CCc1ccccc1NC(=O)c1ccccc1N1C(=O)C2C3C=CC(C3)C2C1=O (stereo not drawn) | inactive: 0.9% |
| Cc1[nH]c2ccc(OC(F)(F)F)cc2c1CCNCc1cccc([N+](=O)[O-])c1 | inactive: 0.5% |
| CC(C)(C)c1ccc(OCC(=O)NC2CCS(=O)(=O)C2)cc1 (stereo not drawn) | inconclusive: 7.7% |
| CS(=O)(=O)N1CCC(C(=O)Nc2ccccc2Cl)CC1 | inconclusive: -0.1% |
| CC(C)(C)OC(=O)NCCc1nnc(SCc2c(Cl)cccc2Cl)o1 | inconclusive: 2.1% |
| CN1C(=O)/C(=C2/C=CC=CN2C)OC1=S | inconclusive: -1.8% |
| CC(Nc1ccc(Cl)c(Cl)c1)C(=O)NN (stereo not drawn) | inconclusive: 5.8% |
| Cc1ccc2c(c1)N(CCC(=O)NC1CCCCC1C)C(=O)CO2 (stereo not drawn) | inactive: 0.7% |
| C[C@H](CO)N1C[C@H](C)[C@H](CN(C)C(=O)Cc2cccnc2)Oc2ncc(Br)cc2C1=O | inactive: -0.4% |
| CCOC(=O)c1c(CC(C)C)csc1NC(=O)COC(=O)c1cc(OC)c(OC)cc1[N+](=O)[O-] | inactive: -0.3% |
| CC1(C)OC(c2ccccc2)=C/C(=C\C=N\NC(=O)c2ccncc2)O1 | inactive: 0% |
| CCOC(=O)C1(C)CCN1C(=O)c1ccc(F)c(Cl)c1 (stereo not drawn) | inactive: -0.2% |
| Cc1ccc(-c2nc3ccccc3c(=O)n2-c2c(C)n(C)n(-c3ccccc3)c2=O)cc1 | inconclusive: 7.2% |

| SMILES | inhibition |
| --- | --- |
| CCOC(=O)Cc1csc(NC(=O)CN2CCCCC2)n1 | inactive: 0.9% |
| CN(C)c1ccc(-c2noc(C3CCN(S(=O)(=O)c4ccc(C(=O)O)cc4)CC3)n2)cc1 | inconclusive: 3.3% |
| O=C(NCc1cccs1)c1ccccc1 | inactive: -2.7% |
| COc1cccc2cc(C(=O)NCc3ccccc3Cl)c(=O)oc12 | inactive: -0.7% |
| CCC1CCCCN1C(=O)c1cc(-c2ccc(Cl)c(Cl)c2)on1 (stereo not drawn) | inconclusive: -6% |
| O=C(COc1ccc(S(=O)(=O)N2CCCC2)cc1)NCc1ccccn1 | inactive: -0.7% |
| CCCN1CCC(N(CCc2ccccc2)Cc2ccccc2)CC1 | inconclusive: -3.7% |
| COc1cc(OC)cc(-c2nnc(NC(=O)CCS(=O)(=O)c3ccc(C)cc3)o2)c1 | inconclusive: -2.4% |
| CCN(CC)C(=O)c1sc2nc(-c3cccs3)cc(-c3ccc(Cl)cc3)c2c1N | active: 53.4% |
| Cn1c(-c2ccc(F)cc2)cnc1NCc1ccc(C#N)cc1 | inconclusive: 3.6% |
| OCC1(Cc2ccccc2)CCCN(Cc2cn[nH]c2-c2ccccc2)C1 (stereo not drawn) | inactive: -0.4% |
| Cc1noc(C)c1S(=O)(=O)Nc1c(C)n(C)n(-c2ccccc2)c1=O | inactive: 0% |
| COP(=O)(Cc1ccc(C#N)o1)OC | inconclusive: 17.6% |
| CCOCC(=O)Nc1cc(-c2cn3cccnc3n2)ccc1C | inconclusive: -7.5% |
| NC(=O)c1cccc(-c2ccnc3c2CC(C(=O)Nc2cccc(Oc4ccccc4)c2)O3)c1 (stereo not drawn) | inactive: -0.3% |
| Cc1cc(C)cc(NC(=O)c2cc(C)n(Cc3cccs3)c2C)c1 | inconclusive: -15% |
| CCOC(=O)C(CCC#N)(CCC#N)C(=O)OCC | inconclusive: 0.6% |
| COc1ccc(-c2csc(NC(=O)C3=COCCO3)n2)cc1OC | inactive: 1.1% |
| COc1ccccc1C(=O)N1C(CC(=O)Nc2cc(Cl)ccc2C)C(=O)NC2CCCCC21 (stereo not drawn) | inconclusive: -1.4% |
| O=C(Cn1cccn1)N1CCCC(N2CCN(c3ccccc3F)CC2)C1 (stereo not drawn) | inactive: -0.3% |
| O=C(CSc1ncn[nH]1)Nc1c(F)cc(F)cc1Br | inconclusive: -0.7% |
| COc1ccc(-c2cc(C(=O)N3CCCc4ccccc43)no2)cc1 | inconclusive: 0.9% |
| Cc1ccc(CSc2nc3c(c(=O)[nH]2)CCC3)cc1 | inconclusive: -2.3% |
| CCCCN(C(C)=O)c1c(CC)nc2ccc(C(=O)NCCCN(C)C)cn12 | inactive: -0.7% |

| SMILES | inhibition |
| --- | --- |
| CCCCCOC(=O)Nc1ccc(S(=O)(=O)Nn2cnnc2)cc1 | inconclusive: -1.1% |
| COc1ccc(Cl)cc1C(=O)NNC(=O)C1CCCO1 (stereo not drawn) | inconclusive: -2% |
| CCOC(=O)c1cnc(SCC(=O)Nc2cccc(OC)c2)nc1N | inconclusive: -1% |
| CC1(C)C(=O)Nc2ccccc2N1C(=O)COC(=O)c1cccnc1 | inactive: -0.6% |
| O=C1Nc2ccccc2C1Cc1ccccc1 (stereo not drawn) | inconclusive: -8.9% |
| BrC(=C\c1ccccc1)/C=N/Nc1ccc2nncn2n1 | inactive: -2.5% |
| CCN(CC)c1ccc(C=Nc2cc(C)ccc2C)c(O)c1 | active: 72.4% |
| COc1ccccc1N1C(=S)N=C(Nc2c(C)cccc2C)C12CCCC2 | inconclusive: -57.8% |
| Cc1ccc(C(=O)n2cnnc2N)cc1 | inconclusive: -5.4% |
| CCCNS(=O)(=O)c1cccc(C(=O)OCc2cc(=O)oc3cc(OC)ccc23)c1 | inactive: -5.1% |
| N#Cc1ccc(CN2CCN(C(=O)c3ccccc3)CC2)c(Cl)c1 | inconclusive: -6.4% |
| CCc1cc2c(s1)NC(=O)CN=C2c1cccs1 | inconclusive: -1.2% |
| O=c1nc(N(c2ccccc2)c2ccccc2)[nH]c(=O)[nH]1 | inconclusive: -0.1% |
| Fc1ccc2[nH]c3c(c2c1)CN(C(=S)NCc1ccccc1)CC3 | inconclusive: -45.7% |
| Cc1ccc(-c2noc(COc3ccccc3C)n2)cc1 | inactive: -1.1% |
| COCCn1nnnc1C(CC(C)C)N1CCN(C(=O)c2ccco2)CC1 (stereo not drawn) | inactive: 0.3% |
| Cn1c(C(=O)N2CCN(c3cccc(C(F)(F)F)c3)CC2)cc2sccc21 | inactive: -4.3% |
| Cc1ccc(NC(=O)c2ccc(CNc3c(N4CCC(C)CC4)c(=O)c3=O)cc2)cc1 | inactive: -0.2% |
| Cc1ccc(CN2C(=O)C(F)(F)Oc3ccc(C)cc32)cc1 | inactive: -0.2% |
| CCCCOC(=O)Nc1ccc(N2CCOCC2)cc1 | inconclusive: 3.4% |
| COc1ccc(-n2c(=O)c3c4c(sc3n3cnnc23)CC(C)CC4)cc1 (stereo not drawn) | inactive: 0.2% |
